PubChem BioAssay AID2685 (National Center for Advancing Translational Sciences (NCATS), 2010)
The other results are listed elsewhere or left out. The main result of the screen is listed elsewhere. These columns were measured beside it and carry no call. Most of these compounds were active or inconclusive in the main read-out, so they are no random draw. Words in brackets tell the shape of the fitted curve; partial curves, single points and poor fits give uncertain potencies.

Assay: qHTS Assay for Lipid Storage Modulators in Drosophila S3 Cells;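 as to cell number change: cells counted by Cell Tracker Red CMTPX staining in the red channel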
Conditions: BODIPY lipid droplet fluorescence, 18-24 h; for cell number change: measured here: cell count max response, cells fed with added oleic acid
Summary of the method: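 Laser-scanning cytometry quantifies lipid droplet accumulation (500–530 nm total intensity; droplet/cell object ratio) in oleic acid-fed (400 uM added) Drosophila S3 cells treated with a concentration series. 20 uM Triacsin C defined 100% inhibition.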

[1] = measured here: cell number channel AC50, cells fed with added oleic acid
[2] = measured here: lipid fluorescence (Fed channel) AC50, cells fed with added oleic acid

Row | SMILES | cell number change [%] | AC50 [1] | AC50 [2]
1 | Cc1cncn1CCc1nc2c3ccccc3nc(SCC(=O)Nc3cccc(Cl)c3)n2n1 | -81.2 | 23.1 µM [falling, single point] | 16.4 µM [falling, single point]
2 | Cc1ccc(C)c(N2CCN(C(=O)c3csc(C)c3C)CC2)c1 | -56.5 | 23.1 µM [falling, partial curve, poor fit] | 2.31 µM [rising, single point]
3 | CC(=O)SC(C)CC(=O)Nc1ccccc1 (stereo not drawn) | -32.9 | 29.1 µM [falling, single point] | 0.00517 µM [falling, full curve, poor fit]
4 | COc1ccc(-c2noc(CCC(=O)NCCCN3CCC(C)CC3)n2)cc1 | -20.5 |  | 29.1 µM [falling, single point]
5 | O=C1C(O)CC2c3ccccc3CC3(CCCC3)N12 (stereo not drawn) | -11.9 |  | 
6 | COc1c(Cl)ccc(Cl)c1C(=O)OCC(=O)O | -3.48 |  | 6.51 µM [rising, single point]
7 | CCCCN(CC)CCNC(=O)Cn1cc2c(n1)-c1c(oc(C(=O)N3CCCC3)c1C)CC2 | 39.2 | 8.2 µM [rising, partial curve, poor fit] | 
8 | CCCCn1c2ccc(F)cc2c2nnc(NN)nc21 | 27.1 |  | 
9 | Cn1c(C(=O)N2CCCC2)cc2c(=O)n(C)c3ccccc3c21 | 2.98 |  | 18.4 µM [rising, single point]
10 | O=c1[nH]c2cc3c(cc2cc1CN(Cc1cccs1)Cc1nnnn1Cc1ccco1)OCCO3 | -13.3 |  | 6.51 µM [rising, single point]
11 | CN(C(=O)CSc1cn(CC(=O)N2CCOCC2)c2ccccc12)c1ccccc1 |  |  | 6.51 µM [falling, single point]
12 | CCN(CC)c1ccc(NC(=O)CSc2nc(C3CC3)nc3ccccc23)cc1C | -8.7 |  | 2.91 µM [rising, single point]
13 | CCCCCCCC(=O)NC1=NC(=O)C(C)(C)S1 | -24.8 | 0.461 µM [falling, full curve, poor fit] | 
14 | Nc1nc(NCCOCCO)nc(NCC2CCCO2)c1[N+](=O)[O-] (stereo not drawn) | 2.14 |  | 1.46 µM [falling, full curve, poor fit]
15 | COc1ccc(OCC(=O)N2CCCC(CO)(CCOc3ccccc3)C2)cc1 (stereo not drawn) | 4.01 |  | 0.82 µM [rising, partial curve, poor fit]
16 | CC(=O)Oc1ccc(C(=O)[C@H]2[C@H]3C(=O)N(c4ccccc4)C(=O)[C@H]3[C@@H]3C=CC=NN32)cc1 | -2.01 |  | 
17 | COc1ccc(NC(=O)C(NS(=O)(=O)c2cccs2)C(C)C)cc1Cl (stereo not drawn) | 20 |  | 
18 | COc1ccc(C(=O)OCC2CC(c3ccccc3)N(C)O2)cc1 (stereo not drawn) | -23 |  | 0.13 µM [falling, full curve, poor fit]
19 | CCOC(=O)[C@H]1[C@H]2COc3ccc(OC)cc3[C@@H]2N2C(=O)c3cc(OC)c(OC)cc3NC(=O)[C@@]12C |  |  | 8.2 µM [falling, partial curve, poor fit]
20 | Cc1cc2nc(C(F)(F)F)cc(-c3cccs3)n2n1 |  | 2.59 µM [rising, partial curve] | 3.66 µM [rising, full curve]

Row | SMILES | cell number change [%] | AC50 [1] | AC50 [2]
21 | O=C(CN1C(=O)NC2(CCCc3ccccc32)C1=O)NCc1ccco1 (stereo not drawn) | 8.68 |  | 0.00517 µM [falling, full curve, poor fit]
22 | O=C1C2C(C(=O)N1/N=C/c1cc([N+](=O)[O-])c(O)cc1O)C1C=CC2C12CC2 (stereo not drawn) | -24.2 |  | 0.13 µM [falling, full curve]
23 | CN(Cc1ccccc1)C(=O)c1[nH]cnc1C(=O)Nc1ccon1 | 10.9 |  | 0.326 µM [rising, full curve, poor fit]
24 | Cc1cccc(NC(=O)c2cc(-c3cc(C)cc(C)c3O)n[nH]2)c1 | -49.1 | 25.9 µM [falling, partial curve] | 29.1 µM [falling, single point]
25 | CC(=O)CCc1ccc(OCCCCN2CCC(Cc3ccccc3)CC2)cc1 | -18.9 | 0.282 µM [falling, full curve, poor fit] | 
26 | Cc1ccc(OCC(=O)NC2CC(C)(C)NC(C)(C)C2)cc1C | 5.25 |  | 
27 | CCOc1ccccc1CN1CCN(Cc2ccc(C)o2)CC1CCO (stereo not drawn) | -19.2 | 0.731 µM [falling, full curve] | 18.4 µM [falling, single point]
28 | CC(C)(C)OC(=O)NCCCCCc1nnc(SCC(N)=O)o1 | -10.7 |  | 
29 | CCOC(=O)c1ccccc1NC(=O)C1CCN(c2ncnc3sc(C)c(C)c23)CC1 | 18.3 | 0.92 µM [rising, full curve, poor fit] | 1.3 µM [rising, full curve]
30 | CCOc1ccccc1NC(=O)c1cccc2c1C(=O)N(CCOC)C2 | 27.4 |  | 
31 | Cc1ccc2c(CC(=O)Nc3ccc(N4CCN(C)CC4)cc3C)coc2c1 | -4.26 |  | 1.84 µM [rising, partial curve, poor fit]
32 | Nn1c(SCC(=O)NCCCc2ccccc2)nnc1-c1cccnc1 | 5.55 | 6.51 µM [falling, single point] | 6.51 µM [falling, single point]
33 | COc1cccc2sc(NC(=O)c3ccc(Br)s3)nc12 | -19.7 |  | 16.4 µM [falling, single point]
34 | O=C(CN1C(=O)C2CC=CCC2C1=O)Nc1cc(C(F)(F)F)ccc1N1CCCC1 (stereo not drawn) | 22.1 |  | 
35 | CCN(CC)S(=O)(=O)c1ccc(OC)c(NC(=O)c2ccc3c(c2)OCO3)c1 | 71.3 | 29.1 µM [rising, single point] | 
36 | CCOC(=O)c1cc2c(=O)n3ccccc3nc2n(CC(C)C)c1=NC(=O)c1c(-c2c(F)cccc2Cl)noc1C | 4.07 |  | 6.51 µM [falling, single point]
37 | Cc1cccc(C)c1OCCCN1CCOCC1 | 11.1 |  | 
38 | CCOC(=O)c1ccccc1NC(=O)COC(=O)C(CCSC)NC(=O)COc1ccccc1 (stereo not drawn) |  | 2.59 µM [rising, single point] | 
39 | CC(NC(=O)CNC(=O)C1CCCCC1)c1cccc(Cl)c1 (stereo not drawn) | 5.65 |  | 0.82 µM [rising, full curve]

Two entries drawn at random from those above, as already listed:
Row | SMILES | cell number change [%] | AC50 [1] | AC50 [2]
38 | CCOC(=O)c1ccccc1NC(=O)COC(=O)C(CCSC)NC(=O)COc1ccccc1 (stereo not drawn) |  | 2.59 µM [rising, single point] | 
37 | Cc1cccc(C)c1OCCCN1CCOCC1 | 11.1 |  | 
